PubChem BioAssay AID1224829 | NIAID, 2016
The whole screen tested about 3,800 reagents; shown is a random part of them. 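Calls cover raised and lowered translocation; gene median uses one vendor's three siRNAs; qiagen siRNAs acted more weakly than ambion siRNAs.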 A number with no mark means an inactive call. The numbers tell different reagents against one gene apart. Not all columns of the deposit are shown.

Purpose: 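Follow-up of TLR4-NF-kappaB regulators using six separate siRNAs for each gene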 (follow-up of hits)
Cell system: mouse RAW264.7 G9 macrophage reporter cells
Reagent: single siRNA against mouse genes, 100 nM
Time to read-out: 2 days of siRNA knock-down, then 40 min of LPS before fixing
Conditions: LPS (Salmonella minnesota R595) at 10 ng/ml
Measured: 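Imaging of GFP-p65 after 40 min of LPS; nuclear over perinuclear ring intensity ratio, scaled to plate median and non-targeting control wells, given as z-score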
Direction: p65 translocation z-score: higher = more nuclear NF-kappaB p65 after LPS
Call rule: 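An siRNA is called active when the mean z-score of its two replicates is above 2 or below -2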
Calls: active = changed p65 translocation (either direction); inactive = no clear change

Was (Wiskott-Aldrich syndrome) #1, siRNA vendor or control pool ambion single siRNA
- p65 translocation z-score, replicate mean: -1.38

Was (Wiskott-Aldrich syndrome) #2, siRNA vendor or control pool ambion single siRNA
- p65 translocation z-score, replicate mean: -1.21

Was (Wiskott-Aldrich syndrome) #3, siRNA vendor or control pool ambion single siRNA
- p65 translocation z-score, replicate mean: -1.74

Was (Wiskott-Aldrich syndrome) #4, siRNA vendor or control pool qiagen single siRNA
- p65 translocation z-score, replicate mean: -1.35

Was (Wiskott-Aldrich syndrome) #5, siRNA vendor or control pool qiagen single siRNA
- p65 translocation z-score, replicate mean: -0.0204

Was (Wiskott-Aldrich syndrome) #6, siRNA vendor or control pool qiagen single siRNA
- p65 translocation z-score, replicate mean: -2.18 (active)

Scart2 (scavenger receptor family member expressed on T cells 2) #1, siRNA vendor or control pool ambion single siRNA
- p65 translocation z-score, replicate mean: 4.04 (active)

Scart2 (scavenger receptor family member expressed on T cells 2) #2, siRNA vendor or control pool ambion single siRNA
- p65 translocation z-score, replicate mean: -0.539

Scart2 (scavenger receptor family member expressed on T cells 2) #3, siRNA vendor or control pool ambion single siRNA
- p65 translocation z-score, replicate mean: 3.59 (active)

Scart2 (scavenger receptor family member expressed on T cells 2) #4, siRNA vendor or control pool qiagen single siRNA
- p65 translocation z-score, replicate mean: -2.02 (active)

Scart2 (scavenger receptor family member expressed on T cells 2) #5, siRNA vendor or control pool qiagen single siRNA
- p65 translocation z-score, replicate mean: -1.63

Scart2 (scavenger receptor family member expressed on T cells 2) #6, siRNA vendor or control pool qiagen single siRNA
- p65 translocation z-score, replicate mean: -2.54 (active)

Copied from the entries so far for reference:
Scart2 (scavenger receptor family member expressed on T cells 2) #5, siRNA vendor or control pool qiagen single siRNA
- p65 translocation z-score, replicate mean: -1.63

Scart2 (scavenger receptor family member expressed on T cells 2) #6, siRNA vendor or control pool qiagen single siRNA
- p65 translocation z-score, replicate mean: -2.54 (active)
